Assay results as given in PubChem BioAssay AID624297 (National Center for Advancing Translational Sciences (NCATS), 2012).
Values joined by “and” are separate entries in the source; they are usually repeats but may differ in a detail not shown here. Identical values can stand only once. The campaign covered roughly 340,000 compounds. About 6,200 (1.8%) were called active. The shares of active, inactive and inconclusive entries below differ from those in the screen. The call rests on the fitted dose curve; in most records, active means well fitted activation curve with a large enough effect; inconclusive means small, poorly fitted or top-dose-only effect; inactive means no such curve, though single readings can be large or run the other way. Where the call is inconclusive, the potency comes from a doubtful curve fit.

experiment: A quantitative high throughput screen for small molecules that induce DNA re-replication in SW480 colon adenocarcinoma cells.; further: nearly all actives have a fitted effect of over 55% in size; on re-replication activation: % of control where 0% means no effect; details: Hoechst DNA content imaging, 48 h; re-replication activation: at 46.1 µM (top of the series) unless noted
Procedure, shortened: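 SW480 cells exposed to compounds for 48 hr at 37 C, 5% CO2, then Hoechst-stained 40 min. Nuclear DNA content imaged by fluorescence scanning (405 nm excitation, 500-530 nm emission); re-replication scored as increased high-intensity nuclei.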
Potency means the concentration at half of the fitted maximal effect.

Compound | Potency | re-replication activation
COc1ccccc1NC(=O)C(C)N(C)Cc1ccc(Cl)s1 (stereo not drawn) | inconclusive: 14.6 µM [activator, partial curve, poor fit] | –
CCc1ccccc1NC(=O)COC(=O)c1c(C)nsc1NC | – | inconclusive: -21.3% [activator]
CCc1ccc(N2C(=O)CN(Cc3ccc(OC)c(OC)c3)C2=S)cc1 | inconclusive: 14.6 µM [activator, partial curve, poor fit] | –
O=c1c2cc(Cl)ccc2nc(-c2ccc([N+](=O)[O-])cc2)n1O | inconclusive: 25.9 µM [activator, single point] | –
CCCCNc1ncnc2c1cnn2-c1ccc(Cl)cc1 | active: 8.2 µM | –
CCOC(=O)N1N=C(CC)CC1(O)C(F)(F)F (stereo not drawn) | – | inactive: -2.9%
COc1ccc(NC(=O)c2ccc(=O)oc2)cc1 | inconclusive: 18.4 µM [activator, single point] | –
O=C(Nc1ccc(N2CCN(C(=O)c3ccccc3)CC2)cc1)c1cc2ccccc2o1 | – | inactive: -4.77%
COC(=O)c1c(C)[nH]c(C(=O)/C=C/c2ccc(Cl)cc2)c1C | inconclusive: 29.1 µM [activator, single point] | –
CN1CCCC1CCNc1ccc2c(=O)c3ccccc3oc2c1 (stereo not drawn) | inconclusive: 20.6 µM [activator, single point] | –
CCC(C)NC(=O)CN(c1cc(C)ccc1OC)S(C)(=O)=O (stereo not drawn) | inconclusive: 32.6 µM [activator, partial curve, poor fit] | –
O=C(c1ccc(Cl)cc1)C1CCN(C(=O)c2ccc(F)cc2)CC1 | – | inactive: -18.4%
COc1ccc2c(c1)OC[C@H]1[C@H]2N2C(=O)c3ccc(F)cc3NC(=O)[C@@]2(C)[C@H]1c1ccccc1 | inconclusive: 9.2 µM [activator, partial curve] | –
C=CCNC(=O)COC(=O)CCC(=O)c1cccs1 | inconclusive: 6.51 µM [activator, single point] | –
CN(CCCN1CCOCC1)C(=O)c1cc(COc2cccc(C(F)(F)F)c2)on1 | inconclusive: 16.4 µM [activator, single point] | –
Nc1nc2ccccc2n1/N=C/c1ccc([N+](=O)[O-])s1 | inconclusive: 3.26 µM [activator, full curve] | –
Cc1ccc(NC(=O)CN2CC(C)SC2=NC2CCCCC2)cc1 (stereo not drawn) | inconclusive: 32.6 µM [activator, partial curve, poor fit] and inconclusive: 23.1 µM [activator, single point] | –
COc1ccc(NC(=O)CN(C)C(=O)c2ccc(N3CCCC3)c([N+](=O)[O-])c2)cc1 | inconclusive: 29.1 µM [activator, single point] | –
Cc1nnnn1CC(=O)Nc1cccc([N+](=O)[O-])c1 | – | inactive: -7.01%
CCOc1ccc(Oc2ccccc2NC(=O)C2=COCCO2)cc1 | inconclusive: 25.9 µM [activator, partial curve, poor fit] | –
Cn1c(=O)c2c(nc(SC3C(=O)CC(C)(C)CC3=O)n2C)n(C)c1=O | inconclusive: 29.1 µM [activator, single point] | –
CC(/C=N/NC(=O)CSc1nc2ccccc2n1C)=C\c1ccco1 | inconclusive: 29.1 µM [activator, single point] | –
COc1cc(C(=O)NCCN2CCN(C(=O)c3cc(OC)c(OC)c(OC)c3)CC2)cc(OC)c1OC | – | inactive: -24.9%

Compound | Potency | re-replication activation
CC(NC(=O)C(=O)N1CCCCC1)C(c1cccs1)N1CCN(C)CC1 (stereo not drawn) | – | inactive: -17.3%
CCN1C(=O)/C(=C\N2CCN(C)CC2)SC1=S | – | inactive: -4.75%
COc1ccc(/C=N/n2c(SC)nnc2-c2ccccc2)cc1C | active: 7.31 µM | –
Cc1cc(-c2n[nH]c(=S)n2/N=C/C(Cl)=C/c2ccccc2)n[nH]1 | inconclusive: 29.1 µM [activator, single point] | –
Cc1cccc(C(C)C)c1NC(=O)c1ccc(COc2ccc3c(C)cc(=O)oc3c2)cc1 | inconclusive: 5.8 µM [activator, partial curve, poor fit] | –
CCN(Cc1ccccc1)C(=O)c1cccc(S(=O)(=O)N2CCN(c3ccccc3)CC2)c1 | – | inactive: -0.175%
CN(CC(=O)Nc1ccccc1C(F)(F)F)C(=O)c1ccc(-c2ccc(Cl)cc2)o1 | – | inactive: -2.11%
COc1ccccc1C(=O)NC(=O)COC(=O)/C(=C/c1ccccc1)NC(C)=O | inconclusive: 6.51 µM [activator, single point] | –
CC(=O)Oc1ccccc1C(=O)N(C1CCCCC1)C1CCCCC1 | – | inactive: -15.9%
COc1ccc(C2CCCN2C(=S)Nc2ccc(C)c(C)c2)cc1OC (stereo not drawn) | – | inactive: -12.9%
O=C(CSc1nnc(-c2cccs2)n1-c1cccc(Cl)c1)c1cccc2c1OCCO2 | – | inactive: 1.62%
COc1ccccc1NC(=O)CSc1n[nH]c(-c2ccco2)n1 | – | inactive: 2.1%
O=c1oc2ccccc2c(Nc2cc3ccccc3cc2O)c1[N+](=O)[O-] | inconclusive: 16.4 µM [activator, partial curve, poor fit] | –
Cc1cc(N2CCOCC2)n2nc(C)c(-c3ccc(Cl)cc3)c2n1 | inconclusive: 16.4 µM [activator, partial curve, poor fit] | –
COc1cccc(C(=O)C2CN(c3ccccc3)CC2c2ccc(Cl)cc2)c1 (stereo not drawn) | inconclusive: 29.1 µM [activator, single point] | –
O=C(CNc1cccc2ccccc12)N/N=C/C=C/c1ccco1 | – | inactive: -5.14%
CCOC(=O)Cn1c(=O)c2c(nc(N3CCOCC3)n2C)n(C)c1=O | – | inactive: -1.11%
CNC(=S)N(CCc1ccc(S(N)(=O)=O)cc1)C1CC(=O)N(c2ccccc2F)C1=O (stereo not drawn) | active: 5.8 µM | –
Cc1nn(C)c(Sc2ccccn2)c1[N+](=O)[O-] | inconclusive: 18.4 µM [activator, single point] | –
COc1ccc(CC(=O)OC(C)CN2CCOCC2)cc1 (stereo not drawn) | inconclusive: 20.6 µM [activator, single point] | –
CCCCCCOc1ccc(NC(=O)CC2C(=O)N(CC)C(=S)N2Cc2ccco2)cc1 (stereo not drawn) | inconclusive: 29.1 µM [activator, single point] | –
CCCN1CCC(=O)N(CCSc2ccccc2)CC1 | inconclusive: 23.1 µM [activator, partial curve, poor fit] | –
O=C(c1ccc(F)c(F)c1)N1CCCc2ccccc21 | inconclusive: 0.116 µM [activator, full curve, poor fit] | –

Compound | Potency | re-replication activation
O=C(COc1ccc([N+](=O)[O-])cc1)Nn1cnnc1 | – | inactive: -6.7%
CC1CCCN(CCC(=O)c2ccccc2)C1 (stereo not drawn) | inconclusive: 29.1 µM [activator, single point] | –
Cc1ccc2nc3c(cc2c1)c(NC(=O)C(C)(C)C)nn3CC(C)C | inconclusive: 5.17 µM [activator, single point] | –
CCOc1ccc(Nc2nc(N)nc(CCl)n2)cc1 | inconclusive: 0.366 µM [activator, full curve, poor fit] | –
O=C1Nc2ccc(Br)cc2/C1=C/C(=O)c1ccccc1 | inconclusive: 18.4 µM [activator, single point] | –
CC(=O)c1ccc(S(=O)(=O)N2CCCc3ccccc32)cc1 | inconclusive: 20.6 µM [activator, single point] | –
CC(=O)NCCn1c(SCC(=O)OCc2ccccc2)nc2ccccc2c1=O | – | inactive: -9.53%
CCN(CC)c1ccc(/C=N/Nc2nc3ccccc3[nH]2)c(O)c1 | active: 2.06 µM | –
CCOC(=O)Cc1cnc(NC(=O)CSc2nc3ncnc(N)c3[nH]2)s1 | inconclusive: 0.731 µM [activator, partial curve, poor fit] | –
CCOC(=O)C1=C(NC(=S)NC(=O)c2ccccc2)c2ccccc2CC1C(C)C (stereo not drawn) | inconclusive: 15.8 µM [activator, single point] | –
Cc1ccc(-c2nnc(SCC(=O)NCC3CCCO3)n2C)cc1 (stereo not drawn) | inconclusive: 16.4 µM [activator, partial curve, poor fit] | –
CCN(Cc1ccccc1)S(=O)(=O)c1ccc(C(=O)Nc2nnc(C3CC3)o2)cc1 | inconclusive: 18.4 µM [activator, single point] | –
C[C@H]([C@H](O)c1ccccc1)N(C)C(=O)CN | – | inactive: -14.6%
Cc1ccc2nc(-c3ccc(NC(=O)CN(c4ccccc4C)S(C)(=O)=O)cc3)sc2c1 | inconclusive: 18.4 µM [activator, single point] | –
COc1ccc(C2=CC(c3ccc(OC)c(OC)c3)n3nnnc3N2)c(OC)c1 (stereo not drawn) | inconclusive: 29.1 µM [activator, single point] | –
Cc1ccc(C(=O)N2CCCC(CCC(=O)N3CCN(c4ccccn4)CC3)C2)s1 (stereo not drawn) | inconclusive: 2.59 µM [activator, partial curve, poor fit] | –
CCOc1ccccc1NC(=O)CSc1nc2ccccc2nc1N1CCCC1 | inconclusive: 32.6 µM [activator, partial curve, poor fit] | –
Cc1cc(C)c(NC(=S)NC(NC(=O)c2ccccc2)C(Cl)(Cl)Cl)c(C)c1 (stereo not drawn) | inconclusive: 20.6 µM [activator, single point] | –
O=C(c1ccco1)N1CCN(Cc2nnc(-c3ccccc3)o2)CC1 | – | inactive: -0.6%
CCNC(=O)COC(=O)C1C(C(=O)OCC)=C(C)NC(C)=C1C(=O)OCC | – | inactive: -0.268%
C[C@H]1O[C@@H](O[C@H]2[C@@H](O)C[C@H](O[C@H]3[C@@H](O)C[C@H](O[C@H]4CC[C@@]5(C)[C@H](CC[C@@H]6[C@@H]5C[C@@H](O)[C@]5(C)[C@@H](C7=CC(=O)OC7)CC[C@]65O)C4)O[C@@H]3C)O[C@@H]2C)C[C@H](O)[C@@H]1O | active: 0.411 µM | –
Cc1ccc(CN(C)CC(=O)Nc2cccc([N+](=O)[O-])c2)o1 | – | inactive: 3.11%
